In assay [1] the target is MYCN (human (endogenous in IMR32)) (UniProt P04198). Nature of the assay: co-IP; anti-MYCN antibody (Santa Cruz sc-53993) on Dynabeads, IMR32 whole cell extracts; lysis buffer 50 mM Tris-HCl pH 7.5, 137 mM NaCl, 1 mM DTT, 1 mM EDTA, 0.5% Triton X-100; 4 °C, 4 h; western blot; samples with or without benzonase. Background: Immunoblotting shows a protein as a band on a membrane.

Amino acid sequences for entries named in this document (tags omitted).
UniProt P04198: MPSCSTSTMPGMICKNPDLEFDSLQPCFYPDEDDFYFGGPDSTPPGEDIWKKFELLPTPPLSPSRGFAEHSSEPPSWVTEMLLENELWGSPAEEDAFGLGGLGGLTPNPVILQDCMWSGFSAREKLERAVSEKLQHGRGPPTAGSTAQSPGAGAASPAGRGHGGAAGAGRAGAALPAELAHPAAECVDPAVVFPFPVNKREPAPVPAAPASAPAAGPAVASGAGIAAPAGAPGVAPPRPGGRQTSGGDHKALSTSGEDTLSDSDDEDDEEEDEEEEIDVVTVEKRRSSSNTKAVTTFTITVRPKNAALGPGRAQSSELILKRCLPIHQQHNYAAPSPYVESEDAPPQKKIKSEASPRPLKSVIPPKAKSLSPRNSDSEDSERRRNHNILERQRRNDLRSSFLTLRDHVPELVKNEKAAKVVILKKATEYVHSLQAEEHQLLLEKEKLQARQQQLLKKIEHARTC
UniProt Q92830: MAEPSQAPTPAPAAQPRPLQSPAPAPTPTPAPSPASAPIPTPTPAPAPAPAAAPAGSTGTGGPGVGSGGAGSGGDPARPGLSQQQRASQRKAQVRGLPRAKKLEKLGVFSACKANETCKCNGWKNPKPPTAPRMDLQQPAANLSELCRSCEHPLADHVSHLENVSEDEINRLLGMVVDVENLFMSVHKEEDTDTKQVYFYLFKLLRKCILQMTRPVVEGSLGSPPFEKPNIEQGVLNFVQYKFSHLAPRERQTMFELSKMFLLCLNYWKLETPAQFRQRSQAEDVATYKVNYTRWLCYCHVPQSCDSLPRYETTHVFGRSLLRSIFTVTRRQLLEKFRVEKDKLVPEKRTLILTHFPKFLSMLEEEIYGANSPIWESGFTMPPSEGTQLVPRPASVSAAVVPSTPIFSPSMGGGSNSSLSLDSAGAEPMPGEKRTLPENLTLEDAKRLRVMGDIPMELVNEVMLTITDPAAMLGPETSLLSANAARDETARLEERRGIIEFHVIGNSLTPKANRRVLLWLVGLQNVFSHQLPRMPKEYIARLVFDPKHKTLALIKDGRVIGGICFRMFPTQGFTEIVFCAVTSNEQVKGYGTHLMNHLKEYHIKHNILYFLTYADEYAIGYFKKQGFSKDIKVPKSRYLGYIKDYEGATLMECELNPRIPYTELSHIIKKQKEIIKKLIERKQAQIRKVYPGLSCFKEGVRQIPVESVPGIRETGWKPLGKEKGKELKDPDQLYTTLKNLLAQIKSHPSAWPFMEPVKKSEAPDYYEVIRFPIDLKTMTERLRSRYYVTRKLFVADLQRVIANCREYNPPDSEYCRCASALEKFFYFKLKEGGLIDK
UniProt P61244: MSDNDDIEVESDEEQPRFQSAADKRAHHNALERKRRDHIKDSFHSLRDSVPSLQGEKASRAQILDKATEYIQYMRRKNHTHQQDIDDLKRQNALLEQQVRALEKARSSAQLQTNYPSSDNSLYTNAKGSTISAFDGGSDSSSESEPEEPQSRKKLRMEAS
UniProt Q92831: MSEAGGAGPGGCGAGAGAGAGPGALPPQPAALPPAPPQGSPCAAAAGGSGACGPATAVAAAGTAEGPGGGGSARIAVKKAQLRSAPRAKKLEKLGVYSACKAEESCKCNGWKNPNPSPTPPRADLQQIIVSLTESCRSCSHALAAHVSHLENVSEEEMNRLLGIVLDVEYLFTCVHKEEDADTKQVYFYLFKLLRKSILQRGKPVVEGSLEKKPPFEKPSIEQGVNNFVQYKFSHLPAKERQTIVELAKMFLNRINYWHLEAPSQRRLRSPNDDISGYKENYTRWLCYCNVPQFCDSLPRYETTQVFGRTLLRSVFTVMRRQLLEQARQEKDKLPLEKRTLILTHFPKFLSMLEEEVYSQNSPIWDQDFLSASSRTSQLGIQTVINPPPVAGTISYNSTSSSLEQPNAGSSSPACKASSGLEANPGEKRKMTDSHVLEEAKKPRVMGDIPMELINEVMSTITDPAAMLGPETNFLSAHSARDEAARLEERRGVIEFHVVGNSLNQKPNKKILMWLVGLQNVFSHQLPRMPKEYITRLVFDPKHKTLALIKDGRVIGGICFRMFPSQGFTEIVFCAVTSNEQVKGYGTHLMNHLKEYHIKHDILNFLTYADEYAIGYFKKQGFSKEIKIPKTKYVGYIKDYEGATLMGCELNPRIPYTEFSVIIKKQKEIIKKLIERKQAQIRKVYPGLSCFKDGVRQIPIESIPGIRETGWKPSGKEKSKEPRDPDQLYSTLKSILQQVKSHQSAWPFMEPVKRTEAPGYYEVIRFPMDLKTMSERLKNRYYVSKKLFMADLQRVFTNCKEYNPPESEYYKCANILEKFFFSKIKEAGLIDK

For assay [2] the target is unchanged. The experiment in a line: SEC; IMR32 cell lysate separated by HPLC on a Sepax SRT SEC 300 column; fractions on SDS-PAGE and western blot.
The target in assay [3] is Lysine Acetyltransferase 2A (human (endogenous in IMR32)) (UniProt Q92830). The experiment in a line: co-IP; KAT2A co-IP from NB cells, western blot for TADA2A and TADA2B.

These are yes or no findings as the source states them, for the method shown. For some of these results: Binding seen in cells or lysates may run through a third protein. Some binding calls cover weakened binding; strength is not graded here.

For “Lysine Acetyltransferase 2A (from UniProt Q92830 1-837)”, the binding result in assay [1] and in assay [2] was “binds” in each case. Take MAX (from UniProt P61244 1-160): the binding result in assay [1] and in assay [2] was “binds” in each case. For the molecule KAT2B (from UniProt Q92831 1-832), the binding entry in assay [1] was “no binding”.

B1: TADA2A (protein, UniProt O75478 1-443)
chain: MDRLGPFSNDPSDKPPCRGCSSYLMEPYIKCAECGPPPFFLCLQCFTRGFEYKKHQSDHTYEIMTSDFPVLDPSWTAQEEMALLEAVMDCGFGNWQDVANQMCTKTKEECEKHYMKHFINNPLFASTLLNLKQAEEAKTADTAIPFHSTDDPPRPTFDSLLSRDMAGYMPARADFIEEFDNYAEWDLRDIDFVEDDSDILHALKMAVVDIYHSRLKERQRRKKIIRDHGLINLRKFQLMERRYPKEVQDLYETMRRFARIVGPVEHDKFIESHALEFELRREIKRLQEYRTAGITNFCSARTYDHLKKTREEERLKRTMLSEVLQYIQDSSACQQWLRRQADIDSGLSPSIPMASNSGRRSAPPLNLTGLPGTEKLNEKEKELCQMVRLVPGAYLEYKSALLNECNKQGGLRLAQARALIKIDVNKTRKIYDFLIREGYITKG
Regarding B1, the binding result in assay [3] is given as “binds”.

B2: TADA2B (protein, UniProt Q86TJ2 1-420)
chain: MAELGKKYCVYCLAEVSPLRFRCTECQDIELCPECFSAGAEIGHHRRYHGYQLVDGGRFTLWGPEAEGGWTSREEQLLLDAIEQFGFGNWEDMAAHVGASRTPQEVMEHYVSMYIHGNLGKACIPDTIPNRVTDHTCPSGGPLSPSLTTPLPPLDISVAEQQQLGYMPLRDDYEIEYDQDAETLISGLSVNYDDDDVEIELKRAHVDMYVRKLKERQRRKNIARDYNLVPAFLGKDKKEKEKALKRKITKEEKELRLKLRPLYQFMSCKEFDDLFENMHKEKMLRAKIRELQRYRRNGITKMEESAEYEAARHKREKRKENKNLAGSKRGKEDGKDSEFAAIENLPGFELLSDREKVLCSSLNLSPARYVTVKTIIIKDHLQKRQGIPSKSRLPSYLDKVLKKRILNFLTESGWISRDAS
Consider B2, for which, in assay [3], the binding entry is given as “binds”.

These data come from paper PMC12022051.
